The values below come from article PMC8895442.

These are yes or no findings as the source states them, for the method shown. Binding seen in cells or lysates may run through a third protein. Some results given as binding are weak or reduced against the parent protein; the word gives no strength.

Assay [1] addresses Flag-PTEN (phosphatase and tensin homolog deleted on chromosome ten) (UniProt P60484). Kind of assay: co-IP; co-immunoprecipitation in 293T cells (Fig. S2); bait not told.
Assay [2] deals with phosphatase and tensin homolog deleted on chromosome ten (PTEN), endogenous (human (endogenous in SW 1990 and HPAC)) (UniProt P60484). Kind of assay: co-IP; endogenous immunoprecipitation from SW 1990 and HPAC lysates in RIPA buffer; primary antibody overnight on ice, Protein A beads 3 h at 4 °C; western blot.

B1: ubiquitin-specific peptidase 22 (USP22) (enzyme, UniProt Q9UPT9 1-525)
chain: MVSRPEPEGEAMDAELAVAPPGCSHLGSFKVDNWKQNLRAIYQCFVWSGTAEARKRKAKSCICHVCGVHLNRLHSCLYCVFFGCFTKKHIHEHAKAKRHNLAIDLMYGGIYCFLCQDYIYDKDMEIIAKEEQRKAWKMQGVGEKFSTWEPTKRELELLKHNPKRRKITSNCTIGLRGLINLGNTCFMNCIVQALTHTPLLRDFFLSDRHRCEMQSPSSCLVCEMSSLFQEFYSGHRSPHIPYKLLHLVWTHARHLAGYEQQDAHEFLIAALDVLHRHCKGDDNGKKANNPNHCNCIIDQIFTGGLQSDVTCQVCHGVSTTIDPFWDISLDLPGSSTPFWPLSPGSEGNVVNGESHVSGTTTLTDCLRRFTRPEHLGSSAKIKCSGCHSYQESTKQLTMKKLPIVACFHLKRFEHSAKLRRKITTYVSFPLELDMTPFMASSKESRMNGQYQQPTDSLNNDNKYSLFAVVNHQGTLESGHYTSFIRQHKDQWFKCDDAIITKASIKDVLDSEGYLLFYHKQFLEYE
For the molecule B1, the binding entry in assay [1] and in assay [2] was “binds” throughout.
